Test results taken from patent publication US8221746B2, “Antioxidant for use in cosmetic, medicated and pharmaceutical preparations” (priority 2008, dated 2012).
At least one structure is not confirmed: it was looked up by name or label, or the drawing left a doubt.

Assay: ABEL Antioxidant Test with Enzyme Generated Superoxide (Pholasin, xanthine/xanthine oxidase)
Format: biochemical

COc1cc2c(cc1O)CCC(C)(C)O2 [Lipochroman-6, dimethylmethoxy chromanol]
ABEL-RAC (Sample 9a): 653 per mg
SOD equivalent units (Sample 9a): 2067
SOD mimetic activity / antioxidant capacity (in words) (enzyme-generated superoxide test): high antioxidant capacity
